Source: the supplement of paper PMC9226226
Where “and” joins values, the source holds several entries; their conditions need not be identical. Identical values can stand only once. The list shows a part of the results. Some well-known active drugs show little effect in this data set, so a weak value is uncertain.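 The cells are human mesenchymal stem cells that lack the Werner syndrome gene and age prematurely. Growth was tracked by automated live-cell imaging in three biological repeats, and the twenty drugs that most raised growth over vehicle were taken forward, with no fixed cutoff stated.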

System: Werner syndrome hMSCs (WRN-/-)
Assay: relative cell density (fold change vs vehicle control); higher = more proliferation (geroprotective)
Conditions: concentration (umol/L): 1, 6 days

Row | SMILES | relative cell density (vehicle: DMSO) | relative cell density (vehicle: Water)
1 | Clc1ccc(Nc2nnc(Cc3ccncc3)c3ccccc23)cc1 | 1.18 | 
2 | COC(=O)c1ccc2c(C(=Nc3ccc(N(C)C(=O)CN4CCN(C)CC4)cc3)c3ccccc3)c(O)[nH]c2c1 | 0.877 | 
3 | CCOC(=O)[C@H](CCc1ccccc1)N[C@@H](C)C(=O)N1Cc2cc(OC)c(OC)cc2C[C@H]1C(=O)O | 1.17 | 
4 | C[N+](C)(C)CCO.[Cl-] | 1.01 | 
5 | C/C=C1\[C@H]2C=C(C)C[C@]1(N)c1ccc(=O)[nH]c1C2 |  | 0.889
6 | O=c1[nH]cnc2[nH]ncc12 | 1.07 | 
7 | O=C(O)CSCC(=O)NC1CCSC1=O (stereo unspecified) | 1.06 | 
8 | COc1cc(/C=C/C(=O)CC(=O)/C=C/c2ccc(O)c(OC)c2)ccc1O | 1.07 | 
9 | CC(C)CN(C[C@@H](O)[C@H](Cc1ccccc1)NC(=O)O[C@H]1CO[C@H]2OCC[C@H]21)S(=O)(=O)c1ccc(N)cc1 | 1.1 | 
10 | NCC[C@H](O)C(=O)N[C@@H]1C[C@H](N)[C@@H](O[C@H]2O[C@H](CN)[C@@H](O)[C@H](O)[C@H]2O)[C@H](O)[C@H]1O[C@H]1O[C@H](CO)[C@@H](O)[C@H](N)[C@H]1O |  | 1.04 and 1.02
11 | O=C1c2cccc3c2[C@H](CCC3)CN1[C@@H]1CN2CCC1CC2 |  | 0.944
12 | CC(=O)Oc1ccccc1C(=O)O.CC(=O)Oc1ccccc1C(=O)O.NC(N)=O | 1.06 | 
13 | CC/C(=C(\c1ccccc1)c1ccc(OCCN(C)C)cc1)c1ccccc1 | 1.11 and 1.07 | 
14 | CCc1oc2ccccc2c1C(=O)c1cc(Br)c(O)c(Br)c1 | 0.98 | 
15 | NCc1ccc(S(N)(=O)=O)cc1 | 0.995 and 1.18 | 
16 | CN[C@@H]1[C@H](O[C@H]2[C@H](O[C@H]3[C@H](O)[C@@H](O)[C@H](NC(=N)N)[C@@H](O)[C@@H]3NC(=N)N)O[C@@H](C)[C@]2(O)CO)O[C@@H](CO)[C@H](O)[C@H]1O |  | 0.909
17 | CC(C)(C)NCC(O)c1cc(O)cc(O)c1 (stereo unspecified) |  | 0.742
18 | CCOC(=O)[N-]c1c[n+](N2CCOCC2)no1 | 1.19 | 
19 | CC[N+](CC)(CC)CCOc1cccc(OCC[N+](CC)(CC)CC)c1OCC[N+](CC)(CC)CC | 1.02 | 
20 | C=C(c1ccc(C(=O)O)cc1)c1cc2c(cc1C)C(C)(C)CCC2(C)C | 1.27 | 
21 | CC(C(=O)O)c1ccc(C(=O)c2cccs2)cc1 (stereo unspecified) | 0.985 | 
22 | COc1cc2ncnc(Nc3ccc(F)c(Cl)c3)c2cc1OCCCN1CCOCC1 | 0.992 | 
23 | CN1CCN(c2nc(C3=C(c4c[nH]c5ccccc45)C(=O)NC3=O)c3ccccc3n2)CC1 | 0.997 | 
24 | CN1CCC[C@@H]1CCO[C@](C)(c1ccccc1)c1ccc(Cl)cc1 | 1.1 | 

Row | SMILES | relative cell density (vehicle: DMSO) | relative cell density (vehicle: Water)
25 | CCOc1ccc(NC(C)=O)cc1 | 1.14 | 
26 | CC(C)[C@H](N)C(=O)OCC(CO)OCn1cnc2c(=O)[nH]c(N)nc21 (stereo partly specified) | 0.914 | 
27 | O=C(O)c1ccccc1 | 0.962 | 
28 | CC[C@@H]([C@H](C)O)n1ncn(-c2ccc(N3CCN(c4ccc(OC[C@@H]5CO[C@@](Cn6cncn6)(c6ccc(F)cc6F)C5)cc4)CC3)cc2)c1=O | 0.797 | 
29 | COC(=O)[C@]12CCC(C)(C)C[C@H]1[C@H]1C(=O)C=C3[C@@]4(C)C=C(C#N)C(=O)C(C)(C)[C@@H]4CC[C@@]3(C)[C@]1(C)CC2 | 0.186 | 
30 | CCCCC[C@H](O)/C=C/[C@H]1[C@H](O)CC(=O)[C@@H]1CCCCCCC(=O)O | 0.98 | 
31 | CC(C)Cc1ccc(C(C)C(=O)O)cc1 (stereo unspecified) | 1.11 | 0.938
32 | COc1ccc(CN2CCN(C(c3ccc(F)cc3)c3ccc(F)cc3)CC2)c(OC)c1OC | 1.14 | 
33 | CCc1ccc(C(=O)C(C)CN2CCCCC2)cc1 (stereo unspecified) | 1.03 | 
34 | Nc1ccc(S(=O)(=O)Nc2cncc(Cl)n2)cc1 | 1.34 | 
35 | Cc1cc(N2CCN([C@@H]3CN[C@H](C(=O)N4CCSC4)C3)CC2)n(-c2ccccc2)n1 | 1.27 | 
36 | Nc1nc2[nH]cc(CCc3ccc(C(=O)N[C@@H](CCC(=O)O)C(=O)O)cc3)c2c(=O)[nH]1 |  | 0.576 and 1.02
37 | COCCc1ccc(OCC(O)CNC(C)C)cc1 (stereo unspecified) | 0.991 | 
38 | CCN1CCN(Cc2ccc(Nc3ncc(F)c(-c4cc(F)c5nc(C)n(C(C)C)c5c4)n3)nc2)CC1 | 1.33 | 
39 | COc1ccc(C(=O)c2ccccc2O)c(O)c1 | 1.09 | 
40 | O=C(O)C1(C(=O)O)CCC1.[NH2-].[NH2-].[Pt+2] |  | 0.741
41 | Cc1cnc(C(=O)O)c[n+]1[O-] | 0.953 | 
42 | CCCCNc1ccc(C(=O)OCCN(C)C)cc1 | 1.05 | 
43 | CCCCC(=O)N(Cc1ccc(-c2ccccc2-c2nn[nH]n2)cc1)C(C(=O)O)C(C)C.CCOC(=O)C(C)CC(Cc1ccc(-c2ccccc2)cc1)NC(=O)CCC(=O)O (stereo unspecified) | 0.871 | 
44 | CCCCCOC(=O)Nc1nc(=O)n([C@@H]2O[C@H](C)[C@@H](O)[C@H]2O)cc1F | 1.14 | 
45 | CCN(CC)CCOc1ccc(C(=C(Cl)c2ccccc2)c2ccccc2)cc1 | 1.21 | 
46 | C=C[C@@H]1C[C@]1(NC(=O)[C@@H]1C[C@@H]2CN1C(=O)[C@H](C(C)(C)C)NC(=O)O[C@@H]1C[C@H]1CCCCCc1nc3ccc(OC)cc3nc1O2)C(=O)NS(=O)(=O)C1CC1 | 1.46 | 
47 | C[C@]1(COc2ccc(N3CCC(Oc4ccc(OC(F)(F)F)cc4)CC3)cc2)Cn2cc([N+](=O)[O-])nc2O1 | 1.31 | 
48 | CN1CCC(=C2c3ccccc3CCc3sccc32)CC1 | 1.08 | 

Row | SMILES | relative cell density (vehicle: DMSO) | relative cell density (vehicle: Water)
49 | COc1ncc(-c2ccc3nccc(-c4ccnnc4)c3c2)cc1NS(=O)(=O)c1ccc(F)cc1F | 0.2 | 
50 | CN1CCOC(c2ccccc2)c2ccccc2C1 (stereo unspecified) |  | 1.04
51 | O=C1[C@H](CC[C@H](O)c2ccc(F)cc2)[C@@H](c2ccc(O)cc2)N1c1ccc(F)cc1 | 0.919 | 
52 | O=C(O)COCCN1CCN([C@H](c2ccccc2)c2ccc(Cl)cc2)CC1 | 1.51 | 
53 | Cc1cnc(C(=O)NCCc2ccc(S(=O)(=O)NC(=O)NC3CCCCC3)cc2)cn1 | 1.03 | 
54 | COc1ccc2c(O[C@@H]3C[C@H]4C(=O)N[C@]5(C(=O)NS(=O)(=O)C6CC6)C[C@H]5/C=C\CCCCN(C)C(=O)[C@@H]4C3)cc(-c3nc(C(C)C)cs3)nc2c1C | 1.21 | 
55 | CC(O)(P(=O)(O)O)P(=O)(O)O |  | 1.13
56 | COC(=O)C1=C(C)NC(C)=C(C(=O)OCC(C)C)C1c1ccccc1[N+](=O)[O-] (stereo unspecified) | 0.867 | 
57 | Oc1cc(O)c(Cl)cn1 | 1.24 | 
58 | CCCC(=O)[O-].[Na+] |  | 1.01
59 | COC(=O)C1=C(C)NC(C)=C(C(=O)OCCN(C)Cc2ccccc2)C1c1cccc([N+](=O)[O-])c1 (stereo unspecified) | 1.02 | 
60 | OC[C@H]1O[C@@H](c2ccc(Cl)c(Cc3ccc(O[C@H]4CCOC4)cc3)c2)[C@H](O)[C@@H](O)[C@@H]1O | 1.05 | 
61 | Cc1ccccc1C(OCCN(C)C)c1ccccc1 (stereo unspecified) | 1.03 | 
62 | CNCc1cc(-c2ccccc2F)n(S(=O)(=O)c2cccnc2)c1 | 1.02 | 
63 | NCCCC(N)(C(=O)O)C(F)F (stereo unspecified) |  | 1.38
64 | O=C1CCc2ccc(OCCCCN3CCN(c4cccc(Cl)c4Cl)CC3)cc2N1 | 1.26 | 
65 | CN(C)CCOC(c1ccc(Cl)cc1)c1ccccn1 (stereo unspecified) | 0.0301 | 
66 | CN(C)CCc1c[nH]c2ccc(CS(=O)(=O)N3CCCC3)cc12 | 1.09 | 
67 | CN1CCN2c3ccccc3Cc3ccccc3C2C1 (stereo unspecified) | 1.07 | 
68 | CCCCCCCCOc1ccccc1C(=O)Nc1ccc(C(=O)OCC[N+](C)(CC)CC)cc1 | 1.17 | 
69 | CCCCc1ncc(/C=C(\Cc2cccs2)C(=O)O)n1Cc1ccc(C(=O)O)cc1 | 1.24 | 
70 | O=C(O)CCC(=O)c1ccc(-c2ccccc2)cc1 | 1.2 | 
71 | O=C1c2c(O)ccc(O)c2C(=O)c2c(NCCNCCO)ccc(NCCNCCO)c21 | 0.0902 | 
72 | CCOC(=O)C1=C(C)NC(C)=C(C(=O)OC)C1c1cccc(Cl)c1Cl (stereo unspecified) | 1.4 | 

Row | SMILES | relative cell density (vehicle: DMSO) | relative cell density (vehicle: Water)
73 | C[C@H](CCC(=O)O)[C@H]1CC[C@H]2[C@@H]3C(=O)C[C@@H]4CC(=O)CC[C@]4(C)[C@H]3CC(=O)[C@]12C | 1.32 | 
74 | COC(=O)/C=C/C(=O)OC | 1.05 | 
75 | O=C(NC(Cc1cc(=O)[nH]c2ccccc12)C(=O)O)c1ccc(Cl)cc1 (stereo unspecified) | 1.11 | 
76 | CCOC(CN1CCN(CC(C)C(=O)c2ccccc2)CC1)c1ccccc1 (stereo unspecified) |  | 0.715
77 | OCC(CO)N[C@H]1C[C@](O)(CO)[C@@H](O)[C@H](O)[C@H]1O | 1.08 | 
78 | CCCCC(=O)N(Cc1ccc(-c2ccccc2-c2nnn[nH]2)cc1)[C@H](C(=O)O)C(C)C | 1.33 | 
79 | COc1cc(Nc2ncc3c(n2)-c2ccc(Cl)cc2C(c2c(F)cccc2OC)=NC3)ccc1C(=O)O | 0.525 | 
80 | Cc1ccc(Nc2nccc(N(C)c3ccc4c(C)n(C)nc4c3)n2)cc1S(N)(=O)=O | 0.974 and 1.24 | 
81 | CCOC(N)=O | 1.23 | 
82 | O=C1c2cccc(O)c2C(=O)c2c(O)cccc21 | 1.4 | 
83 | Cc1c(C(=O)Nc2ccc(N3C[C@@H](C)O[C@@H](C)C3)nc2)cccc1-c1ccc(OC(F)(F)F)cc1 | 1.16 | 
84 | O=C1O[C@H]([C@@H](O)CO)C(O)=C1O | 0.988 | 
85 | Clc1ccc(C(c2ccccc2Cl)C(Cl)Cl)cc1 (stereo unspecified) | 1.18 | 
86 | Cc1cccc(C)c1OCC(=O)N[C@@H](Cc1ccccc1)[C@@H](O)C[C@H](Cc1ccccc1)NC(=O)[C@H](C(C)C)N1CCCNC1=O | 1.31 | 
87 | O=C(O)c1ccccc1Nc1cccc(C(F)(F)F)c1 | 1.06 | 
88 | O=C1Nc2ccc(Cl)cc2[C@@](C#CC2CC2)(C(F)(F)F)O1 | 1.25 | 
89 | Nc1ccc(C(=O)O)c(O)c1 | 1.18 | 
90 | CCCCN1CCCC[C@H]1C(=O)Nc1c(C)cccc1C | 1.04 | 
91 | Cc1cn(-c2cc(NC(=O)c3ccc(C)c(Nc4nccc(-c5cnccn5)n4)c3)cc(C(F)(F)F)c2)cn1 | 1.06 | 
92 | CC(C)[C@H](O)C(=O)N[C@@H](C)C(=O)N[C@@H]1C(=O)N(C)CCc2ccccc21 | 0.973 | 
93 | CCC(=O)O[C@]1(C(=O)SCF)[C@H](C)C[C@H]2[C@@H]3C[C@H](F)C4=CC(=O)C=C[C@]4(C)[C@@]3(F)[C@@H](O)C[C@@]21C | 1.33 | 
94 | CN1CCC(=C2c3ccccc3CCn3c(C=O)cnc32)CC1 | 1.15 | 
95 | Nc1ccc(/N=N/c2ccccc2)c(N)n1 | 0.836 | 
